# Reference: the supplement of paper PMC8728848
# This is one part of the list.
# Key:
# Assay in all cases: glycan array binding signal (z-score within array); higher = stronger binding
# Conditions in all cases: glycan notation: IUPAC condensed, linker removed
# Neu5Ac(a2-6)Gal = target: Neu5Ac(a2-6)Gal
# How it was run: (§1)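 Glycan array binding is given as a within-array Z-score, which can be read as non-binding when negative. The arrays, 3228 of them, came from the Consortium for Functional Glycomics database and were retained only where the protein sequence was available. Z-scores were averaged across arrays of the same protein sequence at different concentrations or buffers and across linkers.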
# [1] = target: Neu5Ac(a2-6)Gal(b1-3)GlcNAc(b1-3)[Gal(b1-4)GlcNAc(b1-6)]Gal(b1-4)Glc
# How it was run: as §1
# Neu5Ac(a2-6)Gal(b1-4)Glc = target: Neu5Ac(a2-6)Gal(b1-4)Glc
# How it was run: as §1
# [2] = target: Neu5Ac(a2-6)Gal(b1-4)GlcNAc
# How it was run: as §1
# [3] = target: Neu5Ac(a2-6)Gal(b1-4)GlcNAc(b1-2)Man
# How it was run: as §1
# [4] = target: Neu5Ac(a2-6)Gal(b1-4)GlcNAc(b1-2)Man(a1-3)Man(b1-4)GlcNAc(b1-4)GlcNAc
# How it was run: as §1
# [5] = target: Neu5Ac(a2-6)Gal(b1-4)GlcNAc(b1-2)Man(a1-3)[Gal(b1-4)GlcNAc(b1-2)Man(a1-6)]Man(b1-4)GlcNAc(b1-4)GlcNAc
# How it was run: as §1
# [6] = target: Neu5Ac(a2-6)Gal(b1-4)GlcNAc(b1-2)Man(a1-3)[GlcNAc(b1-2)Man(a1-6)]Man(b1-4)GlcNAc(b1-4)GlcNAc
# How it was run: as §1
# [7] = target: Neu5Ac(a2-6)Gal(b1-4)GlcNAc(b1-2)Man(a1-3)[GlcNAc(b1-4)][Neu5Ac(a2-6)Gal(b1-4)GlcNAc(b1-2)Man(a1-6)]Man(b1-4)GlcNAc(b1-4)GlcNAc
# How it was run: as §1
# [8] = target: Neu5Ac(a2-6)Gal(b1-4)GlcNAc(b1-2)Man(a1-3)[Man(a1-6)]Man(b1-4)GlcNAc(b1-4)GlcNAc
# How it was run: as §1
# [9] = target: Neu5Ac(a2-6)Gal(b1-4)GlcNAc(b1-2)Man(a1-3)[Neu5Ac(a2-3)Gal(b1-4)GlcNAc(b1-2)Man(a1-6)]Man(b1-4)GlcNAc(b1-4)GlcNAc
# How it was run: as §1
# [10] = target: Neu5Ac(a2-6)Gal(b1-4)GlcNAc(b1-2)Man(a1-3)[Neu5Ac(a2-6)Gal(b1-4)GlcNAc(b1-2)Man(a1-6)]Man(b1-4)GlcNAc(b1-4)GlcNAc
# How it was run: as §1
# [11] = target: Neu5Ac(a2-6)Gal(b1-4)GlcNAc(b1-2)Man(a1-3)[Neu5Ac(a2-6)Gal(b1-4)GlcNAc(b1-2)Man(a1-6)]Man(b1-4)GlcNAc(b1-4)[Fuc(a1-6)]GlcNAc
# How it was run: as §1
# [12] = target: Neu5Ac(a2-6)Gal(b1-4)GlcNAc(b1-2)Man(a1-6)Man(b1-4)GlcNAc(b1-4)GlcNAc
# How it was run: as §1
# [13] = target: Neu5Ac(a2-6)Gal(b1-4)GlcNAc(b1-2)Man(a1-6)[Gal(b1-4)GlcNAc(b1-2)Man(a1-3)]Man(b1-4)GlcNAc(b1-4)GlcNAc
# How it was run: as §1
# [14] = target: Neu5Ac(a2-6)Gal(b1-4)GlcNAc(b1-2)Man(a1-6)[GlcNAc(b1-2)Man(a1-3)]Man(b1-4)GlcNAc(b1-4)GlcNAc
# How it was run: as §1
# [15] = target: Neu5Ac(a2-6)Gal(b1-4)GlcNAc(b1-2)Man(a1-6)[Man(a1-3)]Man(b1-4)GlcNAc(b1-4)GlcNAc
# How it was run: as §1
# [16] = target: Neu5Ac(a2-6)Gal(b1-4)GlcNAc(b1-2)[Neu5Ac(a2-6)Gal(b1-4)GlcNAc(b1-4)]Man(a1-3)[GlcNAc(b1-4)][Neu5Ac(a2-6)Gal(b1-4)GlcNAc(b1-2)[Neu5Ac(a2-6)Gal(b1-4)GlcNAc(b1-6)]Man(a1-6)]Man(b1-4)GlcNAc(b1-4)GlcNAc
# How it was run: as §1
# [17] = target: Neu5Ac(a2-6)Gal(b1-4)GlcNAc(b1-2)[Neu5Ac(a2-6)Gal(b1-4)GlcNAc(b1-4)]Man(a1-3)[GlcNAc(b1-4)][Neu5Ac(a2-6)Gal(b1-4)GlcNAc(b1-4)Man(a1-6)]Man(b1-4)GlcNAc(b1-4)GlcNAc
# How it was run: as §1
# [18] = target: Neu5Ac(a2-6)Gal(b1-4)GlcNAc(b1-2)[Neu5Ac(a2-6)Gal(b1-4)GlcNAc(b1-6)]Man(a1-6)[Neu5Ac(a2-6)Gal(b1-4)GlcNAc(b1-2)Man(a1-3)][GlcNAc(b1-4)]Man(b1-4)GlcNAc(b1-4)GlcNAc
# How it was run: as §1
# [19] = target: Neu5Ac(a2-6)Gal(b1-4)GlcNAc(b1-3)Gal(b1-3)GlcNAc
# How it was run: as §1
# [20] = target: Neu5Ac(a2-6)Gal(b1-4)GlcNAc(b1-3)Gal(b1-4)GlcNAc
# How it was run: as §1
# [21] = target: Neu5Ac(a2-6)Gal(b1-4)GlcNAc(b1-3)Gal(b1-4)GlcNAc(b1-2)Man(a1-3)[Neu5Ac(a2-6)Gal(b1-4)GlcNAc(b1-3)Gal(b1-4)GlcNAc(b1-2)Man(a1-6)]GalNAc
# How it was run: as §1
# [22] = target: Neu5Ac(a2-6)Gal(b1-4)GlcNAc(b1-3)Gal(b1-4)GlcNAc(b1-3)Gal(b1-4)GlcNAc
# How it was run: as §1
# [23] = target: Neu5Ac(a2-6)Gal(b1-4)GlcNAc(b1-3)Gal(b1-4)GlcNAc(b1-3)Gal(b1-4)GlcNAc(b1-2)Man(a1-3)[Neu5Ac(a2-6)Gal(b1-4)GlcNAc(b1-3)Gal(b1-4)GlcNAc(b1-3)Gal(b1-4)GlcNAc(b1-2)Man(a1-6)]GalNAc
# How it was run: as §1
# [24] = target: Neu5Ac(a2-6)Gal(b1-4)GlcNAc(b1-3)Gal(b1-4)GlcNAc(b1-3)GalNAc
# How it was run: as §1
# [25] = target: Neu5Ac(a2-6)Gal(b1-4)GlcNAc(b1-3)Gal(b1-4)GlcNAc(b1-3)[Neu5Ac(a2-6)Gal(b1-4)GlcNAc(b1-3)Gal(b1-4)GlcNAc(b1-6)]GalNAc
# How it was run: as §1
# [26] = target: Neu5Ac(a2-6)Gal(b1-4)GlcNAc(b1-3)Gal(b1-4)GlcNAc(b1-6)[Gal(b1-3)]GalNAc
# How it was run: as §1
# [27] = target: Neu5Ac(a2-6)Gal(b1-4)GlcNAc(b1-3)Gal(b1-4)[Fuc(a1-3)]GlcNAc(b1-3)Gal(b1-4)[Fuc(a1-3)]GlcNAc
# How it was run: as §1
# [28] = target: Neu5Ac(a2-6)Gal(b1-4)GlcNAc(b1-3)GalNAc
# How it was run: as §1
# [29] = target: Neu5Ac(a2-6)Gal(b1-4)GlcNAc(b1-3)[Neu5Ac(a2-6)Gal(b1-4)GlcNAc(b1-6)]GalNAc
# How it was run: as §1
# [30] = target: Neu5Ac(a2-6)Gal(b1-4)GlcNAc(b1-6)GalNAc
# How it was run: as §1
# [31] = target: Neu5Ac(a2-6)Gal(b1-4)GlcNAc(b1-6)[Gal(b1-3)GlcNAc(b1-3)]Gal(b1-4)Glc
# How it was run: as §1
# [32] = target: Neu5Ac(a2-6)Gal(b1-4)GlcNAc(b1-6)[Gal(b1-3)]GalNAc
# How it was run: as §1
# [33] = target: Neu5Ac(a2-6)Gal(b1-4)GlcNAc6S
# How it was run: as §1
# Neu5Ac(a2-6)GalNAc = target: Neu5Ac(a2-6)GalNAc
# How it was run: as §1
# [34] = target: Neu5Ac(a2-6)GalNAc(b1-4)GlcNAc
# How it was run: as §1
# [35] = target: Neu5Ac(a2-6)GalNAc(b1-4)GlcNAc6S
# How it was run: as §1
binder,measurement,setting,value
"AT5G17240(42) (Arabidopsis thaliana), Q6NQJ8 (protein) MDLEHQTMETFLRWAAEIGISDSIDSSRFRDSCLGHSLSVSDFPDAGGRGLGAARELKKGELVLKVPRKALMTTESIIAKDLKLSDAVNLHNSLSSTQILSVCLLYEMSKEKKSFWYPYLFHIPRDYDLLATFGNFEKQALQVEDAVWATEKATAKCQSEWKEAGSLMKELELKPKFRSFQAWLWASATISSRTLHVPWDSAGCLCPVGDLFNYDAPGDYSNTPQGPESANNVEEAGLVVETHSERLTDGGFEEDVNAYCLYARRNYQLGEQVLLCYGTYTNLELLEHYGFMLEENSNDKVFIPLETSLFSLASSWPKDSLYIHQDGKLSFALISTLRLWLIPQSQRDKSVMRLVYAGSQISVKNEILVMKWMSEKCGSVLRDLPTSVTEDTVLLHNIDKLQDPELRLEQKETEAFGSEVRAFLDANCLWDVTVLSGKPIEFSRKTSRMLSKWRWSVQWRLSYKRTLADCISYCNEKMNNLLGTQDRLRDL",glycan array binding signal (z-score),Neu5Ac(a2-6)Gal,0.474
same,glycan array binding signal (z-score),[1],-0.591
same,glycan array binding signal (z-score),Neu5Ac(a2-6)Gal(b1-4)Glc,-0.14
same,glycan array binding signal (z-score),[2],0.396
same,glycan array binding signal (z-score),[3],-0.252
same,glycan array binding signal (z-score),[4],0.067
same,glycan array binding signal (z-score),[5],-0.171
same,glycan array binding signal (z-score),[6],0.18
same,glycan array binding signal (z-score),[7],-0.727
same,glycan array binding signal (z-score),[8],-0.42
same,glycan array binding signal (z-score),[9],-0.662
same,glycan array binding signal (z-score),[10],0.399
same,glycan array binding signal (z-score),[11],-0.482
same,glycan array binding signal (z-score),[12],-0.017
same,glycan array binding signal (z-score),[13],-0.325
same,glycan array binding signal (z-score),[14],0.137
same,glycan array binding signal (z-score),[15],-0.317
same,glycan array binding signal (z-score),[16],-0.852
same,glycan array binding signal (z-score),[17],0.156
same,glycan array binding signal (z-score),[18],-0.372
same,glycan array binding signal (z-score),[19],-0.19
same,glycan array binding signal (z-score),[20],-0.478
same,glycan array binding signal (z-score),[21],-0.437
same,glycan array binding signal (z-score),[22],-0.523
same,glycan array binding signal (z-score),[23],1.23
same,glycan array binding signal (z-score),[24],0.352
same,glycan array binding signal (z-score),[25],-0.161
same,glycan array binding signal (z-score),[26],-0.161
same,glycan array binding signal (z-score),[27],0.029
same,glycan array binding signal (z-score),[28],-0.543
same,glycan array binding signal (z-score),[29],0.768
same,glycan array binding signal (z-score),[30],-0.592
same,glycan array binding signal (z-score),[31],-0.215
same,glycan array binding signal (z-score),[32],-0.398
same,glycan array binding signal (z-score),[33],0.084
same,glycan array binding signal (z-score),Neu5Ac(a2-6)GalNAc,0.119
same,glycan array binding signal (z-score),[34],-0.798
same,glycan array binding signal (z-score),[35],0.369

# Reformatted tab-delimited: entries from further up
binder	measurement	setting	value
AT5G17240(42) (Arabidopsis thaliana), Q6NQJ8 (protein) MDLEHQTMETFLRWAAEIGISDSIDSSRFRDSCLGHSLSVSDFPDAGGRGLGAARELKKGELVLKVPRKALMTTESIIAKDLKLSDAVNLHNSLSSTQILSVCLLYEMSKEKKSFWYPYLFHIPRDYDLLATFGNFEKQALQVEDAVWATEKATAKCQSEWKEAGSLMKELELKPKFRSFQAWLWASATISSRTLHVPWDSAGCLCPVGDLFNYDAPGDYSNTPQGPESANNVEEAGLVVETHSERLTDGGFEEDVNAYCLYARRNYQLGEQVLLCYGTYTNLELLEHYGFMLEENSNDKVFIPLETSLFSLASSWPKDSLYIHQDGKLSFALISTLRLWLIPQSQRDKSVMRLVYAGSQISVKNEILVMKWMSEKCGSVLRDLPTSVTEDTVLLHNIDKLQDPELRLEQKETEAFGSEVRAFLDANCLWDVTVLSGKPIEFSRKTSRMLSKWRWSVQWRLSYKRTLADCISYCNEKMNNLLGTQDRLRDL	glycan array binding signal (z-score)	[11]	-0.482
same	glycan array binding signal (z-score)	[12]	-0.017
same	glycan array binding signal (z-score)	[13]	-0.325
same	glycan array binding signal (z-score)	[14]	0.137
same	glycan array binding signal (z-score)	[15]	-0.317
same	glycan array binding signal (z-score)	[16]	-0.852
same	glycan array binding signal (z-score)	[17]	0.156
same	glycan array binding signal (z-score)	[18]	-0.372
same	glycan array binding signal (z-score)	[19]	-0.19
same	glycan array binding signal (z-score)	[20]	-0.478
